Measurements published in US20050069951A1.
Results are given in words; binding and its absence hold for the method and conditions named. Some entries that bind do so weakly or less than the wild type.

By UniProt entry, the sequences of proteins in these tests, tags left out.
UniProt P03372: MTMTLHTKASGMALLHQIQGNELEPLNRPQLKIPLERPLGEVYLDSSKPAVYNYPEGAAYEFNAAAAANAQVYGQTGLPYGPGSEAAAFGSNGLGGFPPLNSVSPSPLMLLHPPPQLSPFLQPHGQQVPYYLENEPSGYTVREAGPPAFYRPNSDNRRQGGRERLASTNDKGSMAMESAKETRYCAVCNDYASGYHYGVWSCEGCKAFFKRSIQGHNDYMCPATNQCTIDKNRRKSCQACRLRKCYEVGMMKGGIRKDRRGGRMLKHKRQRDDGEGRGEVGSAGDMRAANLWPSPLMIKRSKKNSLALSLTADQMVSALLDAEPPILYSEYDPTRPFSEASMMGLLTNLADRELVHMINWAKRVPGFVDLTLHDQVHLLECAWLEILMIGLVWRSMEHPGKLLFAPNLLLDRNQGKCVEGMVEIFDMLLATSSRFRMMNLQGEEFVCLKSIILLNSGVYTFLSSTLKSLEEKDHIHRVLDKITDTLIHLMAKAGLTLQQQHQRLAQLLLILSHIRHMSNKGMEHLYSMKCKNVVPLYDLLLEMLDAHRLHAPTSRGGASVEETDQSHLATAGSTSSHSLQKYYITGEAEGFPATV
UniProt Q00987: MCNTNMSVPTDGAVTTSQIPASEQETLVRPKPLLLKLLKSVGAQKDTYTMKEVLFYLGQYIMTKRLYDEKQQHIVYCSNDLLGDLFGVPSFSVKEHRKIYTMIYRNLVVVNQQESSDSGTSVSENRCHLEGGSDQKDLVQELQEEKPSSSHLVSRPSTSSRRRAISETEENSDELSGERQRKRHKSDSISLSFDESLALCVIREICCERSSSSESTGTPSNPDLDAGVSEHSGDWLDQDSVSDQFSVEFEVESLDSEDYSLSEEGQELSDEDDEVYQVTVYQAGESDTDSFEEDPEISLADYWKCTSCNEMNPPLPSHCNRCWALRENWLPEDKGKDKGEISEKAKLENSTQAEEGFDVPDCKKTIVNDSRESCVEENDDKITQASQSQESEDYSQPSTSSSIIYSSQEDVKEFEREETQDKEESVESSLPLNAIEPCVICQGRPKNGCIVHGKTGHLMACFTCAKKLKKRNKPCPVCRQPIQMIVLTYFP
UniProt P16790: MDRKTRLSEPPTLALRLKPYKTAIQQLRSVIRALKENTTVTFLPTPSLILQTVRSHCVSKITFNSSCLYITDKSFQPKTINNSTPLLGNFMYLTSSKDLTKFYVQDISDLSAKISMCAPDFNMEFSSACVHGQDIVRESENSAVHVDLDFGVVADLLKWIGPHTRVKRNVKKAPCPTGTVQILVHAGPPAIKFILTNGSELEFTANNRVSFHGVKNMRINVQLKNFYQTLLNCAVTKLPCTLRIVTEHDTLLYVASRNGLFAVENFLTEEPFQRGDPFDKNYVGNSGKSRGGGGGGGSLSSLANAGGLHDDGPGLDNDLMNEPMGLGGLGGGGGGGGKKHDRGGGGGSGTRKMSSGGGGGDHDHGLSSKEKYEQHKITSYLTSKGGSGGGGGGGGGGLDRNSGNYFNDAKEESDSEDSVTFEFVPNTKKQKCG

How the values were obtained:
[1] = target: T1, Yeast alcohol dehydrogenase (yeast) (UniProt P00330); assay: phage ELISA
T1 sequence (looked up): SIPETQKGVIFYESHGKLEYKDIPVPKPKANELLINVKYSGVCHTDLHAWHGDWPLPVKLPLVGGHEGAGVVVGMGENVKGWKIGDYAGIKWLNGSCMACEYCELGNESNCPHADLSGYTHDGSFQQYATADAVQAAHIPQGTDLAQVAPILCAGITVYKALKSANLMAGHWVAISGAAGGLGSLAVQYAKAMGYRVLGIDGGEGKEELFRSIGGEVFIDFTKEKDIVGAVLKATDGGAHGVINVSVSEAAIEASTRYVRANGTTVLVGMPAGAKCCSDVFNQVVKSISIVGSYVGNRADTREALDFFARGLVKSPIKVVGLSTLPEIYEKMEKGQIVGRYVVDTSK

estrogen receptor α [2] = target: estrogen receptor α (UniProt P03372); assay: phage ELISA on immobilized ER with 100 µM estradiol, estriol or antiestrogens; phage selected with estradiol
estrogen receptor α [3] = target: estrogen receptor α (UniProt P03372); assay: phage ELISA on immobilized ER; phage selected without estradiol
[4] = target: GST-human MDM2 fusion protein (human) (UniProt Q00987); assay: phage ELISA against MDM2 and a variety of proteins
estrogen receptor α [5] = target: estrogen receptor α (UniProt P03372); assay: phage ELISA on immobilized ER with estradiol or antiestrogens; phage selected with estradiol
[6] = target: GST-UL44 fusion protein (human cytomegalovirus) (UniProt P16790); assay: ELSA: biotinylated peptide pre-complexed with SA-AP, immobilized target
[7] = target: GST-UL44 fusion protein (human cytomegalovirus) (UniProt P16790); assay: phage ELISA, immobilized target
[8] = target: thrombin cleaved UL44 (human cytomegalovirus) (UniProt P16790); assay: phage ELISA, immobilized target
[9] = target: GST-UL44 fusion protein (human cytomegalovirus) (UniProt P16790); assay: phage ELISA on immobilized GSTUL44
[10] = target: thrombin cleaved UL44 (human cytomegalovirus) (UniProt P16790); assay: phage ELISA, immobilized thrombin cleaved UL44
[11] = target: GST-UL44 fusion protein (human cytomegalovirus) (UniProt P16790); assay: phage ELISA on immobilized GSTUL44 with GSH or DNA as competitor

With SVSVGMKPSPRP [phage-displayed peptide … (PHD12 library)] the binding [1] was “binds”.

In the case of SSKGVLWRMLAEPVSR [ER + estradiol phage 38/39], the binding (estrogen receptor α [2]) is reported as “binds”.

For SSWDRLSDFPWGVSR [ER phage 2 (selected without estradiol)], the binding (estrogen receptor α [3]) was “binds”.

In the case of SSNSMLWKLLAAPSR [ER + estradiol phage 13/14], the binding (estrogen receptor α [2]) is reported as “binds”.

HSHGPLTLNLLRSSGG [ER + estradiol phage 41] was tested, and the binding (estrogen receptor α [2]) was “binds”.

MDGSGGERNSMW was tested, and the binding [4] was “binds”.

In the case of SRLECLLEGRLNCSR [ER + estradiol phage 34], the binding (estrogen receptor α [2]) is reported as “binds”.

SRLEDLLRAPFTTSR [ER + estradiol phage 28] was tested, and the binding (estrogen receptor α [2]) was “binds”.

In the case of SSCKWYEKCSGLWSR [ER phage 7 (selected without estradiol)], the binding (estrogen receptor α [3]) is reported as “binds”.

For SSLLNESRLQWSTSR [phage-displayed peptide … (R library)], the binding [1] was “binds”.

With SSWIRLRDLPWGESR [ER phage 3 (selected without estradiol)] the binding (estrogen receptor α [3]) was “binds”.

With SSELLRWHLTRDTSR [ER + estradiol phage 8] the binding (estrogen receptor α [2]) was “binds”.

In the case of SSNYWWQSPVLSRHSR [phage-displayed peptide … (CWL library)], the binding [1] is reported as “binds”.

For HHHRHPAHPHTYGG [ER phage 47 (selected without estradiol)], the binding (estrogen receptor α [3]) was “binds”.

In the case of SRLKELLLLPTDLSR [ER + estradiol phage 15], the binding (estrogen receptor α [2]) is reported as “binds”.

SRLEELLKWGSVTSR [ER + estradiol phage 11] was tested, and the binding (estrogen receptor α [2]) was “binds”.

With SSAGGGAPAGSTPSR [ER + estradiol phage 26] the binding (estrogen receptor α [2]) was “binds”.

NFWDEWQTFMD was tested, and the binding [4] was “binds”.

With SSLTSRDFGSWYASR [ER + estradiol phage 5] the binding (estrogen receptor α [5]) was “binds”.

For SSSFKPWPIYLGSSR [phage-displayed peptide … (P library)], the binding [1] was “binds”.

SRLEMLLRSETDFSR [ER + estradiol phage 3] was tested, and the binding (estrogen receptor α [2]) was “binds”.

In the case of SSRLWQLLASTDTSR [ER + estradiol phage 16], the binding (estrogen receptor α [2]) is reported as “binds”.

SSKTLWRLLEGERSR [ER + estradiol phage 17] was tested, and the binding (estrogen receptor α [2]) was “binds”.

SSWVLLRDLPWGSR [ER phage 31 (selected without estradiol)] was tested, and the binding (estrogen receptor α [3]) was “binds”.

For SSKLYCLLDESYCSR [ER + estradiol phage 35], the binding (estrogen receptor α [2]) was “binds”.

With SRLSCLLMGFEDCSR [ER + estradiol phage 36] the binding (estrogen receptor α [2]) was “binds”.

With SRLESLLRFGQLDSR [ER + estradiol phage 29] the binding (estrogen receptor α [2]) was “binds”.

In the case of GAPWNWEKKEL, the binding [4] is reported as “binds”.

For SRAGLLSDLLEGKSR [ER + estradiol phage 1/2], the binding (estrogen receptor α [2]) was “binds”.

SSKLIRLLTSDEELSR [ER + estradiol phage 37] was tested, and the binding (estrogen receptor α [2]) was “binds”.

SSRLMELLQEGQGWSR [ER + estradiol phage 40] was tested, and the binding (estrogen receptor α [2]) was “binds”.

For SSNKLLYNLLKMESR [ER + estradiol phage 22], the binding (estrogen receptor α [2]) was “binds”.

With SSRLLSLLVGDFNSR [ER + estradiol phage 19/20] the binding (estrogen receptor α [2]) was “binds”.

SRLEQLLKEEFSYSR [ER + estradiol phage 21] was tested, and the binding (estrogen receptor α [2]) was “binds”.

SRLEQLLRSEPDFSR [ER + estradiol phage 27] was tested, and the binding (estrogen receptor α [2]) was “binds”.

SGSGEHVCSWGWGRC (N-terminal biotin) [biotinylated UL44 surrogate ligand peptide] was tested, and the binding [6] was “binds”.

In the case of SRNLCFFWDDEYCSR [ER phage 41 (selected without estradiol)], the binding (estrogen receptor α [3]) is reported as “binds”.

For SSNHQSSRLIELLSR [ER + estradiol phage 4], the binding (estrogen receptor α [2]) was “binds”.

With SRAGPVLWGLLSESR [ER + estradiol phage 32] the binding (estrogen receptor α [2]) was “binds”.

In the case of PFHSWWQDLTD, the binding [4] is reported as “binds”.

In the case of SFTDYWRDLEQ, the binding [4] is reported as “binds”.

For SRTWESPLGTWEWSR [ER phage 13 (selected without estradiol)], the binding (estrogen receptor α [3]) was “binds”.

With SSKSLLLNLLSTPSR [ER + estradiol phage 23] the binding (estrogen receptor α [2]) was “binds”.

With SSWVRLSDFPWGVSR [ER phage 1 (selected without estradiol)] the binding (estrogen receptor α [3]) was “binds” and the binding (estrogen receptor α [5]) was “binds”.

SSRSLLRDLLMVDSR [ER + estradiol phage 6] was tested, and the binding (estrogen receptor α [2]) was “binds”.

In the case of SSEYCFYWDSAHCSR [ER + estradiol phage 33], the binding (estrogen receptor α [5]) is reported as “binds”.

For EHVCSWGWGRC [UL44-binding phage from the X10C library], the binding [7] was “binds”, the binding [8] was “binds” and the binding [9] was “binds”. The binding [10] was “binds” and the binding [11] was “binds”.

With ADPRLPVEREL the binding [4] was “binds”.

In the case of SRQVEVFKPWPVYSR [phage-displayed peptide … (K library)], the binding [1] is reported as “binds”.

With SSGICFFWDGCFESR [ER phage 35 (selected without estradiol)] the binding (estrogen receptor α [3]) was “binds”.

With SRLEELLLGTNRDSR [ER + estradiol phage 30] the binding (estrogen receptor α [2]) was “binds”.

In the case of SRLEYWLKWEPGPSR [ER + estradiol phage 12], the binding (estrogen receptor α [2]) is reported as “binds”.

In the case of PFQDYWEELLN, the binding [4] is reported as “binds”.

PMRTEWAVGSES was tested, and the binding [4] was “binds”.

SSKYSYSRSSEGHSR [ER phage 29 (selected without estradiol)] was tested, and the binding (estrogen receptor α [3]) was “binds”.

SRSLLECHLMGNCSR [ER + estradiol phage 7] was tested, and the binding (estrogen receptor α [2]) was “binds”.

For SSWQGNVLLGNWISR [phage-displayed peptide … (L library)], the binding [1] was “binds”.

With SRSDSILWRMLSESR [ER + estradiol phage 31] the binding (estrogen receptor α [2]) was “binds”.
